Reference: PMC12818255
Results are given in words; binding and its absence hold for the method and conditions named. In cells and extracts the contact can be indirect. Some binding calls cover weakened binding; strength is not graded here.

Target: T1, neurofascin (NFASC) (human (endogenous in sNF96.2)) (UniProt O94856)
T1 sequence: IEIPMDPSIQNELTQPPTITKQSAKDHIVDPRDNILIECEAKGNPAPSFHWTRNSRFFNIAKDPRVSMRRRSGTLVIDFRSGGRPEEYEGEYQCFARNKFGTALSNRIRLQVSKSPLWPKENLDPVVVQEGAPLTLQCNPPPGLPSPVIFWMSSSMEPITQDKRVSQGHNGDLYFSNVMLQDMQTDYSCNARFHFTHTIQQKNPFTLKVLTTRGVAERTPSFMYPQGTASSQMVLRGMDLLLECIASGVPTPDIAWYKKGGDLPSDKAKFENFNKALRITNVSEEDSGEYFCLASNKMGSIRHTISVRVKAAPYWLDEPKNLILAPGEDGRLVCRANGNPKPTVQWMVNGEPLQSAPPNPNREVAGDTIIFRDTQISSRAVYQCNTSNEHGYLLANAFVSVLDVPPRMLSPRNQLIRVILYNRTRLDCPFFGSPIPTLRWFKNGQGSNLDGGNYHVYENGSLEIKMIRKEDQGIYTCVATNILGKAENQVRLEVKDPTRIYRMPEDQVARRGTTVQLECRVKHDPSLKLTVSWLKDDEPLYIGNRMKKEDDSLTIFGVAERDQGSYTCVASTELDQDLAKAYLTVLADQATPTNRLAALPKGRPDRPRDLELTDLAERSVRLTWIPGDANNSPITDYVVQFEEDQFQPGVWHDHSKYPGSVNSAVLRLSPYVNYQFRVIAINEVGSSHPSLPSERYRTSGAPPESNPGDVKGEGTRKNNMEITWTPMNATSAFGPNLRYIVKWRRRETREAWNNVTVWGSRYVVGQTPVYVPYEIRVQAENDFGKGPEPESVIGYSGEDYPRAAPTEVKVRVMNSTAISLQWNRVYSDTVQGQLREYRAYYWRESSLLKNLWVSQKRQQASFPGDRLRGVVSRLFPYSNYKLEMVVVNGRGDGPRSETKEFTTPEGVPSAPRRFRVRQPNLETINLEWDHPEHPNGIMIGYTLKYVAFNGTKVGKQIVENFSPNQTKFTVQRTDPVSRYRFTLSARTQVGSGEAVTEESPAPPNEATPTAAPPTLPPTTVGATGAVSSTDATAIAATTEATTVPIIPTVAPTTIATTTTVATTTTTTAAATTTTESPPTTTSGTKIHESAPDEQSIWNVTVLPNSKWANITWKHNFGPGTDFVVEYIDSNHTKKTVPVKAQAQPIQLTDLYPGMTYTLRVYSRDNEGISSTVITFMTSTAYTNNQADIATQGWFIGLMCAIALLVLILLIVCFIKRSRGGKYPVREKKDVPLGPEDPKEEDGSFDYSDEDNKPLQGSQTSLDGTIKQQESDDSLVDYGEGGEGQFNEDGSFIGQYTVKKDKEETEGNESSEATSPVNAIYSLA
Assay: co-IP; lysate of SCs (sNF96.2) in IP lysis buffer with protease and phosphatase inhibitors; 1 ug anti-NFASC antibody or IgG overnight at 4 °C; Protein A/G magnetic beads; Western blotting for CNTNAP2

binding: binds
B1: contactin-associated protein-like 2 (CNTNAP2) (protein, UniProt Q9UHC6 28-1331)
chain: APSTSQKCDEPLVSGLPHVAFSSSSSISGSYSPGYAKINKRGGAGGWSPSDSDHYQWLQVDFGNRKQISAIATQGRYSSSDWVTQYRMLYSDTGRNWKPYHQDGNIWAFPGNINSDGVVRHELQHPIIARYVRIVPLDWNGEGRIGLRIEVYGCSYWADVINFDGHVVLPYRFRNKKMKTLKDVIALNFKTSESEGVILHGEGQQGDYITLELKKAKLVLSLNLGSNQLGPIYGHTSVMTGSLLDDHHWHSVVIERQGRSINLTLDRSMQHFRTNGEFDYLDLDYEITFGGIPFSGKPSSSSRKNFKGCMESINYNGVNITDLARRKKLEPSNVGNLSFSCVEPYTVPVFFNATSYLEVPGRLNQDLFSVSFQFRTWNPNGLLVFSHFADNLGNVEIDLTESKVGVHINITQTKMSQIDISSGSGLNDGQWHEVRFLAKENFAILTIDGDEASAVRTNSPLQVKTGEKYFFGGFLNQMNNSSHSVLQPSFQGCMQLIQVDDQLVNLYEVAQRKPGSFANVSIDMCAIIDRCVPNHCEHGGKCSQTWDSFKCTCDETGYSGATCHNSIYEPSCEAYKHLGQTSNYYWIDPDGSGPLGPLKVYCNMTEDKVWTIVSHDLQMQTPVVGYNPEKYSVTQLVYSASMDQISAITDSAEYCEQYVSYFCKMSRLLNTPDGSPYTWWVGKANEKHYYWGGSGPGIQKCACGIERNCTDPKYYCNCDADYKQWRKDAGFLSYKDHLPVSQVVVGDTDRQGSEAKLSVGPLRCQGDRNYWNAASFPNPSSYLHFSTFQGETSADISFYFKTLTPWGVFLENMGKEDFIKLELKSATEVSFSFDVGNGPVEIVVRSPTPLNDDQWHRVTAERNVKQASLQVDRLPQQIRKAPTEGHTRLELYSQLFVGGAGGQQGFLGCIRSLRMNGVTLDLEERAKVTSGFISGCSGHCTSYGTNCENGGKCLERYHGYSCDCSNTAYDGTFCNKDVGAFFEEGMWLRYNFQAPATNARDSSSRVDNAPDQQNSHPDLAQEEIRFSFSTTKAPCILLYISSFTTDFLAVLVKPTGSLQIRYNLGGTREPYNIDVDHRNMANGQPHSVNITRHEKTIFLKLDHYPSVSYHLPSSSDTLFNSPKSLFLGKVIETGKIDQEIHKYNTPGFTGCLSRVQFNQIAPLKAALRQTNASAHVHIQGELVESNCGASPLTLSPMSSATDPWHLDHLDSASADFPYNPGQGQAIRNGVNRNSAIIGGVIAVVIFTILCTLVFLIRYMFRHKGTYHTNEAKGAESAESADAAIMNNDPNFTETIDESKKEWLI
